This passage reports binding results from article PMC8418605.

Sequences of proteins named here, by UniProt entry; tags and fusion partners are left off.
UniProt Q13547: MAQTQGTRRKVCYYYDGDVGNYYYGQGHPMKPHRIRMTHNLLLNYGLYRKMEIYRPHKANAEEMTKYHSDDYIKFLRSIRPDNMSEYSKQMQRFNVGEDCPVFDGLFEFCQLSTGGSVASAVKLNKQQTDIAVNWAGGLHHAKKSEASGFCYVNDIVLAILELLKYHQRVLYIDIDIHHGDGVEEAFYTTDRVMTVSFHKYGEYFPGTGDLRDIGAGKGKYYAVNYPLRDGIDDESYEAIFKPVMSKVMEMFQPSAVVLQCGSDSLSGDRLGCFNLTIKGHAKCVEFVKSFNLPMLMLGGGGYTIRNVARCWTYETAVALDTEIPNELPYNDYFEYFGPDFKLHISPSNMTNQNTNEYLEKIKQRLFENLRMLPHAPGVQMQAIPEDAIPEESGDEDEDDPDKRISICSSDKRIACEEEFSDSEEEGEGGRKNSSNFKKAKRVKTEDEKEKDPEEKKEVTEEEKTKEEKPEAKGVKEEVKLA
UniProt Q92769: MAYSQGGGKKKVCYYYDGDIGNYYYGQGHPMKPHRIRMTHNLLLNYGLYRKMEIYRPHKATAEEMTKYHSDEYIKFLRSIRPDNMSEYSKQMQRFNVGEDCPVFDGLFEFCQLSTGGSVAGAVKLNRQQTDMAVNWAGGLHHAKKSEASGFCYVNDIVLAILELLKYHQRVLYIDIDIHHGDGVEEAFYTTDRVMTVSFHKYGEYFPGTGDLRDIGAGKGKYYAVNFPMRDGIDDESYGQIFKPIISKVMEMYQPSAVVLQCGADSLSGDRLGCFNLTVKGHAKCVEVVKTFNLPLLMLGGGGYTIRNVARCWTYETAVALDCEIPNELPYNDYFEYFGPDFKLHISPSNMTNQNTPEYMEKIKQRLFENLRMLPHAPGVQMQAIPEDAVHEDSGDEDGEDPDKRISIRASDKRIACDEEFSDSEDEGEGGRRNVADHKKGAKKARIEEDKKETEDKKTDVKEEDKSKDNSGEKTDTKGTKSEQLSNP
UniProt P42229: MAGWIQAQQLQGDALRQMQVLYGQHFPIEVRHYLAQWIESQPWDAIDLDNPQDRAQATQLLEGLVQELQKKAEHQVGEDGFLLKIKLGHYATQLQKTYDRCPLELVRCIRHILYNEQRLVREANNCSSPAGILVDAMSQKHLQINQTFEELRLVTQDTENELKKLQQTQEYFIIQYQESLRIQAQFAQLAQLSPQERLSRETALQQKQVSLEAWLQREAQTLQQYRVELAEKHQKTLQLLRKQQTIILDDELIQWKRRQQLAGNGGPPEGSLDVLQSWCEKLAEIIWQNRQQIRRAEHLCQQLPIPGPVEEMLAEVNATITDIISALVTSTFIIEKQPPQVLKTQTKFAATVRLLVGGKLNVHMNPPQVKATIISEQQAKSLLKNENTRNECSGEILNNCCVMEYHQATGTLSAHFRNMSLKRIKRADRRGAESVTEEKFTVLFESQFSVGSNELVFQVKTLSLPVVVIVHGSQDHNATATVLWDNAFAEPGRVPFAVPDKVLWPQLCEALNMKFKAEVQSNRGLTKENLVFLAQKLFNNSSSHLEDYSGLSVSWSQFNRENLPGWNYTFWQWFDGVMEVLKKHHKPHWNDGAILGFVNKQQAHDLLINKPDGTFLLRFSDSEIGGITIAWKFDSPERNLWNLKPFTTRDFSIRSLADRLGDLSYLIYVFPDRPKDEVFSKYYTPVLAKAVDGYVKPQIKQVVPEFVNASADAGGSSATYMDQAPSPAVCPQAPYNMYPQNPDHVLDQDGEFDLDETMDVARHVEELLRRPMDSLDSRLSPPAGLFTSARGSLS

No constants are given. Whether binding was seen depends on the method and setting. Binding seen in cells or lysates may run through a third protein. Some entries that bind do so weakly or less than the wild type.

The target in assay [1] is HDAC1 (human (endogenous in NPC-derived cells)) (UniProt Q13547). Description: co-IP; endogenous proteins; cells lysed in RIPA buffer, 300 ug protein extract with 1 ug antibody at 4 °C, protein G-agarose overnight, immunoblot. For orientation: Immunoblotting shows a protein as a band on a membrane.
In assay [2] the target is HDAC2 (human (endogenous in NPC-derived cells)) (UniProt Q92769). The description is as above.

STAT5A (from UniProt P42229 1-794): the binding entry in assay [1] and in assay [2] was “binds” throughout.
